According to the supplement of paper PMC7824004:
The list shows a part of the results. The data scatter; read single values as rough.

tested on: Candida albicans SN425; assay: biofilm OD600 B-score; higher = more biofilm (less inhibition); details: 10 µM; assay detail: High-throughput adherence inhibition optical density biofilm assay with C. albicans SN425 in RPMI-1640/MOPS pH 7.0, 384-well plates. …
Protocol: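 High-throughput adherence inhibition optical density biofilm assay with C. albicans SN425 in RPMI-1640/MOPS pH 7.0, 384-well plates. Compound (10 µM) was present only during the 90 min adherence step, then washed out, and the biofilm grew 24 h without compound. Biofilm was read as OD600 after removing the media. Scores are the difference from the mean in standard deviations and the plate B-score.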

SMILES	biofilm OD600 B-score
O=C(Nc1cccc(OC(=O)N2CCCCC2)c1)N1CCOCC1	-0.613
CCOc1ccccc1N1CCN(Cc2cccnc2)CC1	0.427
CCCN1CCC(NCC2CCCO2)CC1 (configuration not stated)	-1.4
CCN1CCN(Cc2ccc(Br)s2)CC1	0.12
CN1CCCN(CC2=CC[C@H]3C[C@@H]2C3(C)C)CC1	2.75
OCCN1CCN(Cc2ccc(Cl)c(Cl)c2)CC1	0.895
Cc1c(CCN)c2ccccc2n1-c1ccccc1	-0.941
COc1ccc(CN2CCN(C)CC2)c(C)c1C	1.79
OC(c1ccccc1)(c1ccccc1)c1cnc[nH]1	1.53
NCCc1c[nH]c2ccc(OCc3ccccc3)cc12	1.83
CCN1CCN(Cc2ccccc2OC)CC1	0.0083
Fc1ccc(N2CCN(CCc3ccccc3)CC2)cc1	2.43
CC(=O)c1ccc(N2CCN(Cc3ccc(C)cc3)CC2)cc1	-0.0203
CN1CCN(Cc2cccc(F)c2)CC1	-0.828
CC1(C)[C@H]2CC=C(CN3CCC(O)CC3)[C@@H]1C2	-3.68
C=CC1CN2CCC1CC2[C@H](O)c1ccnc2ccccc12 (some centres not stated)	0.0607
CS(C)=C1C(=O)NC(=O)N(c2ccccc2)C1=O	-0.568
CN1CCN(Cc2cc(Br)cs2)CC1	-0.912
CN1CCC(NC2C3CC4CC(C3)CC2C4)CC1 (configuration not stated)	0.76

A portion of the results above:
SMILES	biofilm OD600 B-score
COc1ccc(CN2CCN(C)CC2)c(C)c1C	1.79
OC(c1ccccc1)(c1ccccc1)c1cnc[nH]1	1.53

Following part

SMILES	biofilm OD600 B-score
c1ccc(CN2CCN(Cc3ccc4c(c3)OCCO4)CC2)cc1	0.0175
Cc1cccc(CN2C[C@@H]3C[C@@H](C2)c2cccc(=O)n2C3)c1	0.049
NCCc1ccc(S(N)(=O)=O)cc1	0.0295
Fc1ccc(N2CCN(Cc3cccs3)CC2)cc1	1.43
CC(C)c1ccc(CN2CCN(CCO)CC2)cc1	-0.536
COc1ccc2c(CCN)c[nH]c2c1	1.85
CCC(N)C(=O)c1ccc(Br)cc1 (configuration not stated)	-0.344
CN(C)C(=O)Oc1ccc(OC(=O)N(C)C)cc1	-1.07
C=C(C)CN(CC)C1CCN(C)CC1	-1.82
CSc1ccc(CN2CCN(C)CC2)cc1	-0.0336
Fc1ccc(N2CCN(Cc3cccc(F)c3)CC2)cc1	0.0203
CCCN1CCC(NC2CCC(O)CC2)CC1 (configuration not stated)	-0.937
CCCCOc1ccc(CN2CCN(C)CC2)cc1	1.42
O=c1[nH]c2ccccc2c(=O)n1-c1ccccc1F	0.0773
Cc1[nH]c2c(Cl)cccc2c1CCN	0.251
CC(C)N1CCN(Cc2cccn2C)CC1	-1.54
O=C(c1ccc(Cl)cc1)N1CCOCC1	0.552
CN1CCN(Cc2ccsc2)CC1	-0.654
